Source: publication PMC11050134, “A Complex-Type N-Glycan-Specific Lectin Isolated from Green Alga Halimeda borneensis Exhibits Potent Anti-Influenza Virus Activity” (International Journal of Molecular Sciences, 2024)

Test system: T1, HBL40
T1 construct: gene HBL40-1; native, purified from alga; about 40 kDa dimer of 20 kDa subunits (non-reducing 40, reducing 20 kDa)
Test: centrifugal ultrafiltration-HPLC, fluorescence detection
Type: binding, Halimeda borneensis
Settings: 500 nM lectin (90 µL) + 300 nM PA-oligosaccharide (10 µL), 50 mM Tris-HCl pH 7.0, room temperature, 60 min; labelled compound

Row | Substance | binding activity (%)
1 | asialo-biantennae with core fucose [compound 3] | 83
2 | asialo-triantennae [compound 5] | 68
